In US20240336610A1, “3CL PROTEASE SMALL-MOLECULE INHIBITOR FOR TREATING OR PREVENTING CORONAVIRUS INFECTION, AND USE THEREOF” (THE GLOBAL HEALTH DRUG DISCOVERY INSTITUTE, priority 2021, published 2024) one finds CC50 data, which are given here for one compound.

The series relates to Hela-ACE cells. Description: Toxicity testing in uninfected cells. Particulars: read-out: Uninfected Hela-ACE CC50, 48 hours, Cell-Titer Glo.

Molecules are shown by their SMILES. The structures given here were assigned with low confidence; some may be wrong.

For `CC(C)(C)OC(=O)N[C@H](C(=O)N1C[C@H]2[C@@H]([C@H]1C(=O)NC(C#N)c1cncc(C(F)(F)F)c1)C2(C)C)C(C)(C)C` (stereo partly shown), the CC50 – broadly, the concentration giving 50% cytotoxicity – was more than 39.8 µM.
